Source: patent US20040191240A1, “Composition and method for nerve regeneration” (priority 2003, published 2004)
These are yes or no findings as the source states them, for the method shown. Some entries that bind do so weakly or less than the wild type. Tags and fused reporters may be left off the sequences shown.

Target: T1, GST-CAT (GST fused to a fragment of Rho-kinase, aa 6-553) (Homo sapiens (Human)) (UniProt O75116)
T1 sequence: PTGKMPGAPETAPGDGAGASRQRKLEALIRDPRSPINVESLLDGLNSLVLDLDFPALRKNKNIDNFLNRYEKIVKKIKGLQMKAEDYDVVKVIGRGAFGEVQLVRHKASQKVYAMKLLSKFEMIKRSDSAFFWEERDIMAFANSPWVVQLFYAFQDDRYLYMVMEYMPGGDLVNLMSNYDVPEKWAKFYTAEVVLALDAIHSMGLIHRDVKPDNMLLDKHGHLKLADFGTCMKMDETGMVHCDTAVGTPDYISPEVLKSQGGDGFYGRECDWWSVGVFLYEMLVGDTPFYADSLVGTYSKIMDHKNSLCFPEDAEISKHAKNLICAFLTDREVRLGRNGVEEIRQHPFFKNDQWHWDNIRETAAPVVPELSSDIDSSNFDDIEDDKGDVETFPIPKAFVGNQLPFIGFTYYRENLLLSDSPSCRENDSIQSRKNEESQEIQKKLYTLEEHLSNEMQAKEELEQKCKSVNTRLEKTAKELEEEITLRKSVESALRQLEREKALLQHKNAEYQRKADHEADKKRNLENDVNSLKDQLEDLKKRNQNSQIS
Experiment: competition: substrate peptide at several concentrations against p21 for GST-CAT

Binder: AKRRRLSSLRA [S6 kinase substrate peptide (…)]
- binding: binds
